# Values of other authors as cited in US12329745B2, “Methods and compositions for treating glucocorticoid excess” (Sparrow Pharmaceuticals, Inc., priority 2022, dated 2025).
# Test system: human HSD-1
# Conditions: cited from earlier work
row,Structure (SMILES),ternary complex with NADPH in structure bound to HSD-1
1,"CCCSc1nc(N2CCC[C@@H](CC(=O)O)C2)ccc1C(=O)NC1CCCCC1 [AZD4017, (S)-2-(1-(5-(cyclohexylcarbamoyl)-6-(propylthio)pyridin-2-yl)piperidin-3-yl)acetic acid]",do not form ternary complexes that include NADPH or do so only via water molecules
2,"CC(C)(C)c1c(C(=O)NC2C3CC4CC(C3)CC2C4)cnn1-c1ccc(C(=O)O)cc1 (centres unmarked) [AZD8329, 4-(4-(((1r,3r,5r,7r)-adamantan-2-yl)carbamoyl)-5-(tert-butyl)-1H-pyrazol-1-yl)benzoic acid]",do not form ternary complexes that include NADPH or do so only via water molecules

# Same assay, conditions: structure bound to HSD-1; cited from earlier work
Structure (SMILES),Backbone interaction,K187 interaction,S170 interaction,Y183 interaction
"CC(C)(O)c1cccn2c(C3(c4ccc(Cl)cc4)CC3)nnc12 [BMS-823778, 2-(3-(1-(4-chlorophenyl)cyclopropyl)-[1,2,4]triazolo[4,3-a]pyridin-8-yl)propan-2-ol]",No,No,Yes,Yes
"COc1ccc(OC(C)(C)C(=O)NC2C3CC4CC2CC(C(N)=O)(C4)C3)cc1 [Compound A, (1s,3R,5S,7s)-4-(2-(4-methoxyphenoxy)-2-methylpropanamido)adamantane-1-carboxamide]",No,No,Yes,Yes
"O=C(N1CCC(c2cnc[nH]2)CC1)N1CCCc2ccccc21 [Compound B, 3,4-dihydroquinolin-1(2H)-yl[4-(1H-imidazol-5-yl)piperidin-1-yl]methanone]",No,No,Yes,Yes
"CC(C)[C@H]1SC(Nc2ccccc2F)=NC1=O [Compound C, (5R)-2-[(2-fluorophenyl)amino]-5-(1-methylethyl)-1,3-thiazol-4(5H)-one]",No,No,Yes,Yes
"C[C@](O)(c1ccc(S(=O)(=O)c2ccc(C#N)cc2CCF)cc1)C(F)(F)F [Compound D, 3-(2-fluoroethyl)-4-((4-[(2S)-1,1,1-trifluoro-2-hydroxypropan-2-yl]phenyl)sulfonyl)benzonitrile]",Yes,No,No,No
"CC(C)(C)N1CCN(c2ccc(N3CCN(C(=O)NC4C5CC6CC4CC(C(N)=O)(C6)C5)c4ccccc43)nc2)CC1 [SAR184841, 4-(5-(4-(tert-butyl)piperazin-1-yl)pyridin-2-yl)-N-((1R,3S,5s,7s)-5-carbamoyladamantan-2-yl)-3,4-dihydroquinoxaline-1(2H)-carboxamide]",No,No,Yes,Yes
